Patent US12472196B2, “Use of DNMT inhibitor” (priority 2019, dated 2025)

What was measured:
MYL = experiment: cells; details: 72 h, read-out: IC50 MYL
Experimental: (§1) The CML cell line (BV173, MYL, Ba/F3 BCR-ABL^WT) and the TKI-resistant CML cell line (MYL-R, Ba/F3 BCR-ABL^T315I) in the Table below were seeded in 96-well plates at 3,000-7,000 cells/100 μL/well in a culture solution (10% FBS and RPMI-1640) and cultured under 5% CO2 gas flow at 37° C. for about 3 hours. Then, 100 μL of each compound diluted with the culture solution to 50-0.05 μM MYL, Ba/F3 BCR-ABL^WT, MYL-R, Ba/F3 BCR-ABL^T315I and 500 nM-0.1 nM BV173 was added to the above 96-well plates and cultured for 24 hours, followed by centrifugation (4° C., 1500 rpm, 5 minutes). The supernatant of the culture solution was discarded. […] After further culturing for 24 hours (72 hours totally) and reaction using CCK-8 reagent (DOJINDO, CK04) according to its attached instruction, the absorption at 450 nm and 620 nm (blank) of each well was determined with a plate reader (Varioskan Flash, Thermo-Fisher Scientific Co. Ltd.). The values of the wells without sample treatment were taken as 100%, and those of the wells treated with the samples were expressed as relative values. The values of IC50 (μm) were calculated (see Table 3-1). In addition, IC50 ratio of MYL-R cell line to MYL cell line and that of Ba/F3 BCR-ABL^T315I cell line to Ba/F3 BCR-ABL^WT cell line were calculated (see Table 3-2).

MYL-R = experiment: cells; details: 72 h, read-out: IC50 MYL-R
Experimental: as §1, with “3-2). […]” for “3-2).”

Cc1ccc(NC(=O)c2ccc(CN3CCN(C)CC3)cc2)cc1Nc1nccc(-c2cccnc2)n1 [Imatinib, reference compound]
IC50 (MYL): 0.28 µM | IC50 (MYL-R): 2.98 µM
